Molecules are shown by their SMILES. This is one part of the list. Repeats are few or missing, and single values can be far off.

We go through 4 compounds from the supplement of paper PMC8426693.

In the test the test system is SARS-CoV-2 3'-UTR RNA. Description: T2 signal reduction relative to ligand without RNA (fraction); higher = stronger binding. As to conditions: RNA concentration 10 µM; fragment concentration 200 µM; 293 K.
On to `CCOC(=O)c1cc(-c2ccc(C)cc2)no1`, for which the T2 signal reduction came to 0.65.

`CCc1nc(-c2ccc(Cl)cc2)no1` displayed a T2 signal reduction of 0.48.

`CC(C)NC(=O)c1ccc2ccccc2n1` came in with a T2 signal reduction of 0.21.

Consider `CC(=O)Nc1ccc2[nH]c(=O)[nH]c2c1`, for which the T2 signal reduction was 0.36.
